Test results reported in patent publication US20090258836A1, “EFFECTIVE DELIVERY OF CROSS-SPECIES A3 ADENOSINE-RECEPTOR ANTAGONISTS TO REDUCE INTRAOCULAR PRESSURE” (The Trustees of The University of Pennsylvania, priority 2006, published 2009).
At least one structure is not confirmed: it was looked up by name or label, or the drawing left a doubt.

Columns and labels:
mouse IOP [1] = test: Mouse IOP after topical application, invasive servo-null micropipette system (SNMS); type: in vivo, Black Swiss mice
Description: (§1) The test animals were black Swiss outbred mice of mixed sex, 7-9 weeks old and 25-30 g in weight, obtained from Taconic Inc. (Germantown, N.Y.), and maintained under 12:12-h light/dark illumination cycle and allowed unrestricted access to food and water. Mice were anesthetized with intraperitoneal ketamine ([…]) supplemented by topical proparacaine HCl 0.5% (Allergan, Bausch & Lomb) for the IOP measurements. IOP was measured invasively (SNMS) and non-invasively by pneumotonometry in separate animals.
By the SNMS approach (Avila et al., supra, 2001), the exploring micropipette, of […] outer diameter, was filled with a highly conducting solution and advanced across the cornea into the anterior chamber. A refined technique by Wang et al., Invest. Opthalmol. Vis. Sci. (serial online) (Aug. 31, 2006) available at www.iovs.org/egi/letters/46/9/3274#422, enhanced stability and reduce the background noise of the records, permitting fabrication of micropipettes whose resistance is 0.1-0.3 MΩ, rather than the 0.25-0.4 MΩ used initially. The filling solution was reduced from 3M KCl to 2M NaCl, rather than 3 M KCl. […]
(§2) Effects on invasively-measured IOP were measured 10 min after topical application because after this time, the continued presence of the micropipette can be associated with a downward drift of the IOP, even under control conditions. […]

mouse IOP [2] = test: Mouse IOP after topical application, non-invasive pneumotonometry; type: in vivo, Black Swiss mice; settings: MRS-3833 at 200 nM
Description: as §1
By comparison, IOP was measured non-invasively by pneumotonometry (OBT) (Avila et al., supra, 2005). As previously described, the commercially available tip of the ocular blood tomography (OBT) pneumotonometer (Blood Flow Analyzer [BFA] probe tip; Paradigm Medical Industries Inc.) was fit to a custom-built mount. […] Pressure was monitored with a transducer connected through a T-connection to the base of the BFA tip. […] The probe tip was advanced sufficiently to make contact with the tear film, as was indicated by a shift in the baseline output reading. […]
as §2

Compound: OC1CSC(n2cnc3c(NCc4cccc(I)c4)nc(Cl)nc32)C1O (centres unmarked) [MRS-3820, 2-(2-chloro-6-(3-iodobenzylamino)-9H-purin-9-yl)tetrahydrothiophene-3,4-diol]
- effect on mouse IOP measured invasively (in words) (mouse IOP [1]): found to be effective
- effect on mouse IOP measured non-invasively (in words) (mouse IOP [2]): found to be effective
